For at least one entry, the source does not settle the construct or the ends of the probe. For part of these data: Negatives hold for the conditions tested. Protein sequences can lack the tags named with them.
What was measured:
Test in all cases: activity assay
[1] = tested on: T1, MG151-95; conditions: primer extension gel; protein translated in vitro; protein details: Strep, RT-RNase H trim; label: 5'-FAM primer; DNA:RNA hybrid
T1 sequence: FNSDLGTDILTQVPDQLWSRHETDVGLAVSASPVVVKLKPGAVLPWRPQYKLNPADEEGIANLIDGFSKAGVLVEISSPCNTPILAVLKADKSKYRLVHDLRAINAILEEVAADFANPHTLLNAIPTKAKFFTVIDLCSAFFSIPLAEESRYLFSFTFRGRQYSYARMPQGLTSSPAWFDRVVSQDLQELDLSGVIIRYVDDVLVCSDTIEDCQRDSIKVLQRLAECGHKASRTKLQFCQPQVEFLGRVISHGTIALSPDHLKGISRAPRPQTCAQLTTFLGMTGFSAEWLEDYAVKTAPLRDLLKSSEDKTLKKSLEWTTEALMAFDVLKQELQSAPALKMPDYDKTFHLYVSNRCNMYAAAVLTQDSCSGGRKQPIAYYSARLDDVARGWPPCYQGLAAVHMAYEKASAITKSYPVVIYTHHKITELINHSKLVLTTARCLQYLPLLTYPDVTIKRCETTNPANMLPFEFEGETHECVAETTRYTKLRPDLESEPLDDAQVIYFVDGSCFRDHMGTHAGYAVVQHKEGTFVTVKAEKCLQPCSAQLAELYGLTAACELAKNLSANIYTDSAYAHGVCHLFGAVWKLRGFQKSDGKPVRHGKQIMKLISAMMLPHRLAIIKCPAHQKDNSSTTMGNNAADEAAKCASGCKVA

[2] = tested on: T2, MG153-33; conditions: primer extension gel; 3 mM MgCl2, 37 C; protein translated in vitro; protein details: N-terminal Strep; label: 5'-FAM primer; DNA:RNA hybrid
T2 sequence (limits assumed): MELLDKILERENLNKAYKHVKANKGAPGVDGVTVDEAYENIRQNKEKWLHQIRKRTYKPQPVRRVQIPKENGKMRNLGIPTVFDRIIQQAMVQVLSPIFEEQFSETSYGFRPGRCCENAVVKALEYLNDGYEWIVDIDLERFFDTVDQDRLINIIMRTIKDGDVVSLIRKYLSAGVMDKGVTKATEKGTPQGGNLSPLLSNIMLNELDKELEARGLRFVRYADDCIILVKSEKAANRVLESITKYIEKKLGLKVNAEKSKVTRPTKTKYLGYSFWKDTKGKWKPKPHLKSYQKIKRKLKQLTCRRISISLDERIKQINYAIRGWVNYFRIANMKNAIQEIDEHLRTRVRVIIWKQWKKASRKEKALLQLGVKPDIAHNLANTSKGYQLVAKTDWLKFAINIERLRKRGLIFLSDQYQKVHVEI

[3] = tested on: T3, MG153-45; conditions: primer extension gel; 3 mM MgCl2, 37 C; protein translated in vitro; protein details: N-terminal Strep; label: 5'-FAM primer; DNA:RNA hybrid
T3 sequence (limits assumed): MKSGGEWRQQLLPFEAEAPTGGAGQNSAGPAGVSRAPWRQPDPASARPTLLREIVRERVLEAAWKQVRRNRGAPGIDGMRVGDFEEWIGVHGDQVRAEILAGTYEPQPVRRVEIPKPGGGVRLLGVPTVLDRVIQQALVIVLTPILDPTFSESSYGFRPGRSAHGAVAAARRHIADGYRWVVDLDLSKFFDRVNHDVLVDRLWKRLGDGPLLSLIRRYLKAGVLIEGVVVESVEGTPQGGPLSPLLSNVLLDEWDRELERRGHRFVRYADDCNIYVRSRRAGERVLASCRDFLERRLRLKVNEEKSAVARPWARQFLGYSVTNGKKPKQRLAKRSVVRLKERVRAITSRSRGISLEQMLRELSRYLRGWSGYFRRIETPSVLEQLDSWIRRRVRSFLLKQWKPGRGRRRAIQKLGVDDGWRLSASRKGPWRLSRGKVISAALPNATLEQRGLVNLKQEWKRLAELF

[4] = tested on: T4, MG153-6; conditions: primer extension gel; higher error rate than MMLV; protein translated in vitro; protein details: N-terminal Strep; label: 5'-FAM primer; DNA:RNA hybrid
T4 sequence (limits assumed): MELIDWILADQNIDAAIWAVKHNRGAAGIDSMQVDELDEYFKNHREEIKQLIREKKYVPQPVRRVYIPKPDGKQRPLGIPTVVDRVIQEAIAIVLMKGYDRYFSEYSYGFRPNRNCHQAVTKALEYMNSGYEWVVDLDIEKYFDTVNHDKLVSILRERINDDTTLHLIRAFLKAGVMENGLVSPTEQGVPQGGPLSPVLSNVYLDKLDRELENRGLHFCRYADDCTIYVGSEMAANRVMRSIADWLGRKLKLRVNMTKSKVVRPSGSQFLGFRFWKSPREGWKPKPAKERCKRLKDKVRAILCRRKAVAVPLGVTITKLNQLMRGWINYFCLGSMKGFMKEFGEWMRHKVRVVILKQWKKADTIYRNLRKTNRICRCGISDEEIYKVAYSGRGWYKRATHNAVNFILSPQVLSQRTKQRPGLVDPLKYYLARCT

[5] = tested on: T5, MG155-1; conditions: tested, not listed as active; protein translated in vitro; protein details: N-terminal Strep; label: 5'-FAM primer; DNA:RNA hybrid
T5 sequence (limits assumed): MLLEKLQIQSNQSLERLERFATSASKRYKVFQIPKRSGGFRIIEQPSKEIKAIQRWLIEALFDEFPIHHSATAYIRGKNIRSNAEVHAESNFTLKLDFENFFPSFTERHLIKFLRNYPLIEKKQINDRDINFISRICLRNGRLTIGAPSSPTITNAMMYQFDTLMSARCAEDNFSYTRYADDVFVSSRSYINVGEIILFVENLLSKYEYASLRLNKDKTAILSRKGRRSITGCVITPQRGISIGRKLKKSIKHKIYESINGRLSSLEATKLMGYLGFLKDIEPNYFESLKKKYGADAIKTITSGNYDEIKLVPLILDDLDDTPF

[6] = tested on: T6, MG157-1; conditions: tested, not listed as active; protein translated in vitro; protein details: N-terminal Strep; label: 5'-FAM primer; DNA:RNA hybrid
T6 sequence (limits assumed): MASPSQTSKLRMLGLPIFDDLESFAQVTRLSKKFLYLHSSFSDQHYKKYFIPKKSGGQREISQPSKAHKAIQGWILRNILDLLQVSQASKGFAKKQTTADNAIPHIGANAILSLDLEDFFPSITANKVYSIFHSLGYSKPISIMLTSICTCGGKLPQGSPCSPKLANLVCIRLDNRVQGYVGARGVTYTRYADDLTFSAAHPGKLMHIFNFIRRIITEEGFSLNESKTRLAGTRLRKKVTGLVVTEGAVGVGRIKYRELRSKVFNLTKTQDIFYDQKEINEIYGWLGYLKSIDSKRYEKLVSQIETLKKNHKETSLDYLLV

## GGCAAACCGCCTCTCCCCGCGCGTTGGCCGATTCATTAATGCAGCTGGCACGACAGGTTTCCCGACTGGAAAGGAGACCCGGGCAGTGAGCGCAACGGGTCTCCAATTTAAGCCAGCCCCGACACCCGCCAACACCCGCTGACGCGCCCTGACGGGCTTGTCTGCTCCCGGCATCCGCTTACAGACAAGCTGTGACCGTCTC / GAGACGGTCACAGCTTGTCTG [202-nt RNA template annealed to DNA primer]
[1]
  activity on this sequence: active
[2]
  activity on this sequence: active
[3]
  activity on this sequence: active
[4]
  activity on this sequence: active
[5]
  activity on this sequence: not active
[6]
  activity on this sequence: not active

From patent US20260193623
